This passage reports binding results from article PMC8477192, “An ionic lock and a hydrophobic zipper mediate the coupling between an insect pheromone receptor BmOR3 and downstream effectors” (The Journal of Biological Chemistry, 2021).

Chains of the proteins cited; added tags and fusions are not shown.
UniProt P53779: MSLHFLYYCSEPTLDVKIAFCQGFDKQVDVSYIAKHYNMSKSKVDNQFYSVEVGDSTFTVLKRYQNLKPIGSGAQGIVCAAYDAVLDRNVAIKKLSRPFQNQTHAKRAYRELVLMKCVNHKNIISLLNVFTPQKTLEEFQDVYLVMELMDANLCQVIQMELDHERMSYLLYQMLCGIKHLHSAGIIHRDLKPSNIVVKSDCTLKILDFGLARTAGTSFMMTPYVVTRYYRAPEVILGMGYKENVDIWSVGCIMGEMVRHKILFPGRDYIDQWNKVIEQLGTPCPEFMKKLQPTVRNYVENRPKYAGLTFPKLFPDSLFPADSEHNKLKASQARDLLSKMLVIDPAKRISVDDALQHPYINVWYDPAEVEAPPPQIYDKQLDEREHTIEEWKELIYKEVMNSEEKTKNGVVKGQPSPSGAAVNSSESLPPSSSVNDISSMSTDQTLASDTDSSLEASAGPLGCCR
UniProt P32121: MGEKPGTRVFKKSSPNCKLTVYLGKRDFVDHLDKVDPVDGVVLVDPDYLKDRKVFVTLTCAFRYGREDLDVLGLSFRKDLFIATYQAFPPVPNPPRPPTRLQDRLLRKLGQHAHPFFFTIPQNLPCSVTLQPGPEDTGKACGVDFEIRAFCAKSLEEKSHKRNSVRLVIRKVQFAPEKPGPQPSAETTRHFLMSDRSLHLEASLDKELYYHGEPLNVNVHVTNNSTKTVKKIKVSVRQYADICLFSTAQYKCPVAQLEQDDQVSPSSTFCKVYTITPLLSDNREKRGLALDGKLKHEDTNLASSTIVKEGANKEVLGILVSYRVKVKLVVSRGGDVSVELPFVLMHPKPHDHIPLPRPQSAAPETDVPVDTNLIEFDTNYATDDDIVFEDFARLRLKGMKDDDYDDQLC

Results are given in words; binding and its absence hold for the method and conditions named. In cells and extracts the contact can be indirect. Some results given as binding are weak or reduced against the parent protein; the word gives no strength.

For the assay, the target named is YFP-tagged JNK3 (UniProt P53779). The assay can be described thus: FRET or BRET; arrestin-kinase BRET in living HEK293 cells cotransfected with WT AT1R, β-arr2-Rluc and a YFP-tagged kinase; 1 μM AngII for 10 min.

Take β-arr2-Rluc (from UniProt P32121 1-409): the binding entry is reported as “binds”.
